Reference: paper PMC12670400 (Journal of Medicinal Chemistry, 2025)

Assay: general procedure: Fmoc solid-phase peptide synthesis; preloaded Fmoc-Cys Wang resin (0.7 mmol/g) for 2-6; hydrazine carbamate Wang resin (0.9 mmol/g) for 7-10; HBTU/HOBt/DIPEA (plus DMAP for 7-10)
Settings: cyclisation step; for final HPLC purity: 280 nm
[1] = bicyclic, sequence written open
[2] = relative to the linear peptide, bicyclic, sequence written open

Substance	final HPLC purity [1]	final HPLC purity	cyclisation yield (from linear peptide)	cyclisation yield (relative to the linear peptide)	also measured
GFCTRSNPPHCWPN	over 95%	–	–	–	cyclisation yield [2]: 15%
cyclo(GYCTRSSPPECWPN) (disulfide 3-11)	–	over 95%	12%	–	–
GFCTRSNPPECWPN	over 95%	–	–	–	cyclisation yield (from linear peptide, bicyclic, sequence written open): 8%
cyclo(GSCTRSSPPECWPN) (disulfide 3-11; SMILES C[C@@H](O)[C@@H]1NC(=O)[C@@H]2CSSC[C@H](NC(=O)[C@H](CCC(=O)O)NC(=O)[C@@H]3CCCN3C(=O)[C@@H]3CCCN3C(=O)[C@H](CO)NC(=O)[C@H](CO)NC(=O)[C@H](CCCNC(=N)N)NC1=O)C(=O)N[C@@H](Cc1c[nH]c3ccccc13)C(=O)N1CCC[C@H]1C(=O)N[C@@H](CC(N)=O)C(=O)NCC(=O)N[C@@H](CO)C(=O)N2)	–	over 95%	9%	–	–
PEPTIDE1{G.R.C.T.R.S.I.P.P.H.C.W.P.D}$PEPTIDE1,PEPTIDE1,1:R1-14:R2|PEPTIDE1,PEPTIDE1,3:R3-11:R3$$$V2.0	–	over 95%	–	18%	–
PEPTIDE1{G.F.C.H.R.S.Y.P.P.E.C.W.P.N}$PEPTIDE1,PEPTIDE1,1:R1-14:R2|PEPTIDE1,PEPTIDE1,3:R3-11:R3$$$V2.0	–	over 95%	6%	–	–
cyclo(GFCTRENPPHCWPN) (disulfide 3-11; SMILES C[C@@H](O)[C@@H]1NC(=O)[C@@H]2CSSC[C@H](NC(=O)[C@H](Cc3c[nH]cn3)NC(=O)[C@@H]3CCCN3C(=O)[C@@H]3CCCN3C(=O)[C@H](CC(N)=O)NC(=O)[C@H](CCC(=O)O)NC(=O)[C@H](CCCNC(=N)N)NC1=O)C(=O)N[C@@H](Cc1c[nH]c3ccccc13)C(=O)N1CCC[C@H]1C(=O)N[C@@H](CC(N)=O)C(=O)NCC(=O)N[C@@H](Cc1ccccc1)C(=O)N2)	–	over 95%	–	14%	–
cyclo(GFCHRSYPPHCWPN) (disulfide 3-11; SMILES N=C(N)NCCC[C@@H]1NC(=O)[C@H](Cc2c[nH]cn2)NC(=O)[C@@H]2CSSC[C@H](NC(=O)[C@H](Cc3c[nH]cn3)NC(=O)[C@@H]3CCCN3C(=O)[C@@H]3CCCN3C(=O)[C@H](Cc3ccc(O)cc3)NC(=O)[C@H](CO)NC1=O)C(=O)N[C@@H](Cc1c[nH]c3ccccc13)C(=O)N1CCC[C@H]1C(=O)N[C@@H](CC(N)=O)C(=O)NCC(=O)N[C@@H](Cc1ccccc1)C(=O)N2)	–	over 95%	–	15%	–
GFCHREYPPHCWPN	over 95%	–	–	–	cyclisation yield [2]: 18%

End groups of sequences in plain letters are not given here. The same purity stands for every peptide and may come from a single statement. Some peptides are written in HELM: one residue between dots, names in brackets for other building blocks, links after the first $. Bridge positions count the residues as written; N and C are the ends.
